# PubChem BioAssay AID1347076 (National Center for Advancing Translational Sciences (NCATS), 2019)
# In all, about 400,000 compounds went through this assay and about 13,000 (3.2%) were called active. Inconclusive results, whose numbers are uncertain, are shown with a selection of clear calls. Calls come from the whole dose curve; as a rule, active = well fitted cell-killing curve with a large enough effect; inconclusive = small, poorly fitted or top-dose-only effect, or effect the other way; inactive = flat fitted curve, though single readings scatter. Potencies beside an inconclusive call are fits to weak or partial responses and may not hold up.
# Test: qHTS assay for MDR1-selective chemotherapeutics: Primary screen using the drug-selected MDR subline cells KB-V1; note: nearly all actives have a fitted effect of over 60% in size
# Conditions: KB-V1 MDR cells viability, CellTiter-Glo, 72 h; series mostly up to 46.1 µM
# How it was run: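 KB-V1 cells (P-gp-expressing MDR subline of KB-3-1) in phenol-red-free DMEM with 10% FBS were exposed to library compounds over a concentration series for 72 h at 37 degrees C. Viability read by CellTiter-Glo luminescence; concentration-effect curves fitted after normalization.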
# Potency is the fitted concentration of half-maximal effect.
row,SMILES,Potency
1,COc1ccc(OC2OC3COC(C)(C)OC3C(O)C2NC(C)=O)cc1 (stereo not drawn),"inconclusive: 20.6 µM [rising, single point]"
2,Cc1ccc(SCc2ccc(C(=O)Nc3cccc([N+](=O)[O-])c3)cc2)cc1,inactive
3,CCOC(=O)n1cc(-c2cnc(CNC(=O)C(C)(c3ccccc3)c3ccccc3)o2)c2ccccc21,inactive
4,Cc1cccc(C)c1-n1nnnc1C1c2ccccc2C(=O)N1CCC(C)C (stereo not drawn),"inconclusive: 13 µM [cytotoxic, partial curve]"
5,O=C(O)c1ccc2c(ccc3nn(-c4ccc(/C=C/c5ccc(-n6nc7ccc8cc(C(=O)O)ccc8c7n6)cc5[S+](=O)([O-])[O-])c([S+](=O)([O-])[O-])c4)nc32)c1,inactive
6,CCOC(=O)[C@]12CCC=C1N(Cc1ccc(Cl)cc1Cl)C(=O)[C@H](CC(=O)N1CCN(C(=O)c3ccco3)CC1)C2,active: 10.3 µM
7,COc1ccc2[nH]c(-c3ccc(C)cc3)cc(=O)c2c1,"inconclusive: 16.4 µM [cytotoxic, single point]"
8,Cc1csc(NC(=O)c2ccc(=O)[nH]c2)n1,"inconclusive: 13 µM [rising, single point]"
9,Oc1ccc2ccccc2c1/C=N/c1nc2c(s1)CCCC2,inactive
10,CCOC(=O)CSc1nc2sc(C)c(C)c2c(=O)n1C,"inconclusive: 7.31 µM [rising, partial curve, poor fit]"
11,Cc1ccc(NC2=NC3(CCCCC3)N=C(N)N2)c(C)c1,inactive
12,Cc1ccc(NC(=O)C(C)OC(=O)/C=C/c2ccccc2)cc1S(=O)(=O)N1CCOCC1 (stereo not drawn),inactive
13,Cc1cscc1-c1cc2nc(NCCCN(C)C)n(C)c(=O)c2s1,inactive
14,COC(=O)c1cc2occc2n1Cc1nc(-c2cccc(Br)c2)oc1C,"inconclusive: 18.4 µM [rising, single point]"
15,COc1ccc(CCNC(=O)c2cccc([N+](=O)[O-])c2)cc1OC,inactive
16,O=C(c1cc2ccccc2oc1=O)N1CCN(S(=O)(=O)c2ccccc2)CC1,"inconclusive: 25.9 µM [cytotoxic, single point]"
17,COc1ccccc1OCc1ccc(C(=O)n2nc(C)c(Cl)c2C)o1,"inconclusive: 35.5 µM [cytotoxic, single point]"
18,Nc1cc2[nH]c(=O)c3ccccc3c2cc1[N+](=O)[O-],"inconclusive: 5.8 µM [cytotoxic, partial curve]"
19,COc1ccc(C(=O)CN2CC(C)SC2=Nc2ccc(Cl)cc2)cc1 (stereo not drawn),"inconclusive: 11.6 µM [cytotoxic, partial curve]"
20,COc1ccc(/C=C(/NC(=O)c2ccco2)C(=O)N2CCOCC2)cc1,inactive
21,CC(=O)Nc1ccc(-c2ccnc3c2CC(C)(C(=O)Nc2ccc(F)c(Cl)c2)O3)cc1 (stereo not drawn),"inconclusive: 29.1 µM [cytotoxic, single point]"
22,COc1ccc(Cn2ccnc2SCC(=O)Nc2ccc(F)cc2F)cc1,"inconclusive: 23.1 µM [cytotoxic, single point]"
23,Cn1c(=O)n(CCCOc2ccc(Br)cc2)c2ccccc21,"inconclusive: 29.1 µM [cytotoxic, single point]"
24,COc1cc(CNCC(C)C)c(Br)cc1OCC(=O)NCc1ccccc1,"inconclusive: 7.31 µM [cytotoxic, partial curve]"
25,CSc1nc(Cl)c(Br)c(Nc2c[nH]c(=O)[nH]c2=O)n1,"inconclusive: 16.4 µM [cytotoxic, partial curve, poor fit]"

# Given with bars between the fields: entries from further up
row | SMILES | Potency
15 | COc1ccc(CCNC(=O)c2cccc([N+](=O)[O-])c2)cc1OC | inactive
16 | O=C(c1cc2ccccc2oc1=O)N1CCN(S(=O)(=O)c2ccccc2)CC1 | inconclusive: 25.9 µM [cytotoxic, single point]

# (listing goes on)

row,SMILES,Potency
1,CCCN(CC(=O)Nc1ccc(F)c(F)c1F)C(=O)c1ccc(=O)n(Cc2ccccc2)n1,"inconclusive: 13 µM [cytotoxic, partial curve]"
2,Cc1ccc(SCC(=O)Nc2cccc(-c3nnc(-c4ccco4)o3)c2)cc1,"inconclusive: 18.4 µM [cytotoxic, single point]"
3,Fc1ccc2nc3[nH]c4ccccc4c3nc2c1,"inconclusive: 18.4 µM [cytotoxic, single point]"
4,COc1ccc(-c2cc3ccc(OCC(N)=O)cc3oc2=O)cc1OC,inactive
5,Cc1c(NC(=O)C(C)Sc2nc(N)cc(=O)[nH]2)c(=O)n(-c2ccccc2)n1C (stereo not drawn),inactive
6,COc1ccccc1N(C)S(=O)(=O)c1ccc(C(=O)Nc2cccc(Br)c2)cc1,"inconclusive: 29.1 µM [cytotoxic, single point]"
7,COC(=O)C1=C(C(=O)OC)[C@@H]2N(C)c3ccc(OC)cc3[C@@]23C[C@@H](C(=O)OC)N(C(=O)c2cccs2)C3=N1,"inconclusive: 14.6 µM [rising, single point]"
8,CCOc1ccc(N2CC(O)(c3ccc(F)cc3)[N+]3=C2CCCC3)cc1 (stereo not drawn),inactive
9,CC(C)(C)c1cc(C(=O)NN)n(Cc2ccc(Cl)cc2Cl)n1,"inconclusive: 16.4 µM [cytotoxic, single point]"
10,CC(C)Nc1nc(NC(C)C)nc(Nn2cnnc2)n1,"inconclusive: 29.1 µM [rising, single point]"
11,O=C(Nc1ccccc1OCc1ccccc1)c1ccccc1Br,"inconclusive: 18.4 µM [cytotoxic, single point]"
12,OCC1(Cc2ccc(Cl)cc2)CCN(CC2CC=CCC2)CC1 (stereo not drawn),"inconclusive: 8.2 µM [cytotoxic, partial curve, poor fit]"
13,Oc1ccc(Br)cc1-c1cc(-c2ccccc2Cl)[nH]n1,"inconclusive: 8.2 µM [cytotoxic, partial curve]"
14,O=C1COc2ccc(C(=O)COC(=O)c3cnc(Cl)c(Cl)c3)cc2N1,"inconclusive: 14.6 µM [rising, partial curve, poor fit]"
15,COc1cc2[nH]c(=O)n(CCCCCC(=O)N3CCN(c4ccc(Cl)cc4)CC3)c(=O)c2cc1OC,inactive
16,CCOC(=O)C1=C(C)NC(=O)NC1/C=C/c1ccccc1OC (stereo not drawn),"inconclusive: 20.6 µM [cytotoxic, single point]"
17,COc1ccccc1C(=O)Nc1ccc2c(c1)C(=O)NC2=O,inactive
18,COc1cccc(CNC(=O)CCS(=O)(=O)c2ccc3c(c2)NC(=O)CS3)c1,inactive
19,c1ccc(Cc2nnc3sc(C4COc5ccccc5O4)nn23)cc1 (stereo not drawn),active: 14.6 µM
20,CNC(=O)CO/N=C/c1ccc(N(C)C)cc1,"inconclusive: 29.1 µM [rising, single point]"
21,COc1ccc(NC(=O)CSc2nc(C)cc(C)n2)c([N+](=O)[O-])c1,"inconclusive: 20.6 µM [cytotoxic, partial curve, poor fit]"
22,CC(C)(C)OC(=O)N[C@@H](Cc1ccccc1)c1nnc(S(=O)(=O)Cc2cccc(F)c2)o1,active: 18.4 µM
23,Cc1ccc(S(=O)(=O)N2CCOCC2)cc1C(=O)N(Cc1nnc(-c2ccccc2Cl)o1)C1CC1,"inconclusive: 9.2 µM [cytotoxic, partial curve]"
24,COc1ccc2c(c1)cc1c(=O)n(CC(=O)NCCc3ccccc3)nc(C)n12,inactive
25,COC(=O)c1ccc(OCC(=O)Nc2nn(-c3ccccc3)nc2C(N)=O)cc1,inactive

# Shown as tab-separated lines: three of the compounds above
row	SMILES	Potency
14	O=C1COc2ccc(C(=O)COC(=O)c3cnc(Cl)c(Cl)c3)cc2N1	inconclusive: 14.6 µM [rising, partial curve, poor fit]
15	COc1cc2[nH]c(=O)n(CCCCCC(=O)N3CCN(c4ccc(Cl)cc4)CC3)c(=O)c2cc1OC	inactive
16	CCOC(=O)C1=C(C)NC(=O)NC1/C=C/c1ccccc1OC (stereo not drawn)	inconclusive: 20.6 µM [cytotoxic, single point]

# (continued)

row,SMILES,Potency
1,COc1cc2nc(NCc3ccccc3)n3nc(-c4ccccc4)nc3c2cc1OC,inactive
2,COc1ccccc1C1=NOC(Cn2c(=O)c3c(ncn3C)n(C)c2=O)C1 (stereo not drawn),inactive
3,Cc1cc(C(=O)N/N=C/c2ccc(C)o2)c2ccccc2n1,"inconclusive: 2.31 µM [cytotoxic, full curve, poor fit]"
4,O=c1[nH]c(CSc2nc3ccccc3[nH]2)nc2c1cnn2-c1ccccc1,active: 10.3 µM
5,c1ccc(OCCOc2cccc3cccnc23)cc1,inactive
6,CCCCNC(=O)CC1S/C(=N/N=C/c2ccc(OC)cc2)NC1=O (stereo not drawn),inactive
7,Cn1nc(-c2ccc(N3CCOCC3)c(NS(=O)(=O)c3ccc(Cl)cc3)c2)c2ccccc2c1=O,"inconclusive: 20.6 µM [cytotoxic, partial curve, poor fit]"
8,CN1CCN(c2ccc(NC(=O)COc3ccc(Cl)cc3Cl)cc2)CC1,"inconclusive: 9.2 µM [cytotoxic, partial curve]"
9,CCN1CCN(CCCN(Cc2ccco2)C(=S)Nc2ccc(Cl)cc2)CC1,"inconclusive: 6.51 µM [cytotoxic, partial curve]"
10,CC1CCCCC1NC(=O)CCn1ccc2cc(S(=O)(=O)N3CCCC3)ccc21 (stereo not drawn),inactive
11,CC(C)c1ccccc1OCCNC(=O)c1cccnc1,inactive
12,COc1cccc(NC(=O)Nc2ccc3c(c2)N(C)C(=O)CS3)c1,"inconclusive: 18.4 µM [cytotoxic, single point]"
13,CCCOc1cccc(C2c3c(oc4ccc(F)cc4c3=O)C(=O)N2Cc2ccc3c(c2)OCO3)c1 (stereo not drawn),inactive
14,Clc1ccc(Nc2nc(NCc3ccco3)nc3nccnc23)cc1,"inconclusive: 29.1 µM [rising, single point]"
15,Cc1nc(-n2nc(C)c(Cc3ccc4c(c3)OCO4)c2C)sc1C(=O)Nc1ccc(Cl)cc1,inactive
16,O=C(O)C1SCCN1S(=O)(=O)c1ccc2ccccc2c1 (stereo not drawn),inactive
17,Cc1cccc(N2C(=O)C=CC2=O)c1,inactive
18,O=C(COc1ccc(S(=O)(=O)N2CCOCC2)cc1)N1CCN(c2ccccc2)CC1,"inconclusive: 16.4 µM [cytotoxic, single point]"
19,CC1CCN(C(=O)COC(=O)C23CC4CC(CC(O)(C4)C2)C3)CC1,inactive
20,CCCCN(Cc1ccco1)C(=O)Cn1ncc2c([nH]c3ccccc32)c1=O,inactive
21,COc1ccccc1CNS(=O)(=O)c1ccc(-n2cccn2)cc1,inactive
22,Cc1cccc(Cn2cccc2CNS(=O)(=O)c2ccc(C)c(C)c2)c1,"inconclusive: 16.4 µM [cytotoxic, single point]"
23,COc1ccc2[nH]c(=O)c(CN(Cc3cccnc3)Cc3nnnn3CC3CCCO3)cc2c1 (stereo not drawn),"inconclusive: 29.1 µM [rising, single point]"
